The list shows a part of the results.

The text below walks through data of article PMC7819943, “Rice protein-binding microarrays: a tool to detect cis-acting elements near promoter regions in rice”.

The target of the assay is T1, OsSMF1 (Oryza sativa, UniProt Q6ZLB0 1-436).
T1 sequence: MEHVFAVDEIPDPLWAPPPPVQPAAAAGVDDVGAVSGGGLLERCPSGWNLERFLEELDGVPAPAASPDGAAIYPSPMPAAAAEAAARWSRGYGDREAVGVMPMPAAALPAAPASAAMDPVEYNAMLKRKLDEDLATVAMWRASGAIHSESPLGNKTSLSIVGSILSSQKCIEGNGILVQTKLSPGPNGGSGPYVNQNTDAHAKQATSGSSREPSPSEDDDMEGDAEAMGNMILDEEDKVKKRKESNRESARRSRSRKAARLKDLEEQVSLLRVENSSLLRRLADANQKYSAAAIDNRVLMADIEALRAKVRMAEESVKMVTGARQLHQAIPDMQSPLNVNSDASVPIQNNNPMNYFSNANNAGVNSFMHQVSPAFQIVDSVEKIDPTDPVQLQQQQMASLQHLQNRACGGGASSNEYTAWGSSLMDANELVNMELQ
Kind of assay: protein-binding microarray (RPBM); PBS, 2% BSA, 51.3 ng/ul salmon testes DNA, 50 uM zinc acetate, 200 nM TF, 25 C, 1 h; high values mean tight binding. To be noted: protein: recombinant; tags: N-terminal polyhistidine and DsRed monomer fusion (pET32a); chain copies: 2; label: CyDye5-dUTP incorporated in the synthesized complementary strand; 3' TTTTT single-stranded linker to array surface; dsDNA, one strand shown. Summed up: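 Per-feature fluorescence intensity (arbitrary units), read on an Axon 4000B scanner, is the binding signal. Transcription factors carrying an N-terminal polyhistidine tag and DsRed fusion were expressed in E. coli BL21-CodonPlus and purified on Ni–NTA. A custom Agilent array, made double-stranded by primer extension with Cy5-dUTP and blocked with 2% BSA, was incubated with 200 nM protein in PBS, 2% BSA, salmon testes DNA and 50 µM zinc acetate at 25 °C for 1 h and then washed.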
On to “ATTTTCCATTTTGAAAATTGACGGAAATAGTCGCCTACCGCGGAGTCACCTAGTGCAG”, for which the binding signal was 19200 fluorescence intensity (a.u.). The figure for “GGCCCCACTGCGCAGCGGGACAATGAAGGACATATTTGTACGGAGTCACCTAGTGCAG” is 22600 fluorescence intensity (a.u.). The figure for “GTCCGTACGGCTGCGGCTGTAGATGACGTCGTTGCAGTGGCGGAGTCACCTAGTGCAG” is 5510 fluorescence intensity (a.u.); for “GTCTCCCTCCACCCATGCCGTGGCAATCGAGCTCATCTCCCGGAGTCACCTAGTGCAG” it is 4910 fluorescence intensity (a.u.); for “GATCTCGCCGAACGCCGCAAACTCCTTGGTGAGCGCCTTCCGGAGTCACCTAGTGCAG” it is 3580 fluorescence intensity (a.u.). Regarding “AAATACTCATAATAATTGCTAGTGAATGATGATGTGGCACCGGAGTCACCTAGTGCAG”, the binding signal was 19100 fluorescence intensity (a.u.).

Take “GAAAGTGGACGCGCGCGGTCTGGCGTCACCTGGGCCGAAACGGAGTCACCTAGTGCAG”: the binding signal was 3320 fluorescence intensity (a.u.). In the case of “GGATTGGCGGAAAGCTGACTGTGCTGTTCTCATATCCTTTCGGAGTCACCTAGTGCAG”, the binding signal is 7200 fluorescence intensity (a.u.). The value for “GTATTTCTATCCAGGGACGAATTTCAGACTCAGTGACAACCGGAGTCACCTAGTGCAG” was 14500 fluorescence intensity (a.u.). With “ATTGAAGATGCACCACAATGTATATATGTGTAGAGTGGGTCGGAGTCACCTAGTGCAG”, the binding signal is 3560 fluorescence intensity (a.u.).

As for “AATGCTGACCGTGAGTCCACGAGCGCCGCCGATGCGGATGCGGAGTCACCTAGTGCAG”, the binding signal was 3220 fluorescence intensity (a.u.).

Take “CATGGTGGACGACGACTCTAGCTGTCACGTAGCTCGGTCGCGGAGTCACCTAGTGCAG”: the binding signal was 3140 fluorescence intensity (a.u.). The value for “CCATCCACCGACGCACCCTCCCGTCCACGTGCCTCCGCTGCGGAGTCACCTAGTGCAG” was 3430 fluorescence intensity (a.u.). The value for “ATGTATTGGATCCATCTGTACTCCATTATCACGCACGCCTCGGAGTCACCTAGTGCAG” was 8570 fluorescence intensity (a.u.). For the sequence “AGAGAAGACGCATAATAAATTTACCGTGTCGGTGTGATTACGGAGTCACCTAGTGCAG”, the binding signal was 3190 fluorescence intensity (a.u.). The value for “CTTTCTGATGTGTCAAGCGGCATCTCTGATCTTCTTTCTGCGGAGTCACCTAGTGCAG” was 3900 fluorescence intensity (a.u.); that for “AGGAAGATGGGTTGAGCCCACTTTAGTTGTCAGTAGTGGTCGGAGTCACCTAGTGCAG” was 3730 fluorescence intensity (a.u.). The figure for “TCCTTCGATTCCAAGCATATAGTAATATATGACACGATGCCGGAGTCACCTAGTGCAG” is 5000 fluorescence intensity (a.u.). The value for “GGCCTGTCGTACAAGCCGCTTTGCTTGGGCATACAAGCAACGGAGTCACCTAGTGCAG” was 65100 fluorescence intensity (a.u.); that for “CGAGAAGGATGTGGTTCGCCGATGCCACGCTTCTAGAGGACGGAGTCACCTAGTGCAG” was 3490 fluorescence intensity (a.u.); that for “ACCATTGCGGGTGCCCTTAGATCATCAGGTGTCACGGCCACGGAGTCACCTAGTGCAG” was 3700 fluorescence intensity (a.u.). For “AGATTCCAAGAAGAATGAATAGAAAACAGTGGTAGATCGACGGAGTCACCTAGTGCAG”, the binding signal was 26600 fluorescence intensity (a.u.).

Turning to “AATGGGGCTATAGGTAATTATGCTTAGAAGTCCGGTTCATCGGAGTCACCTAGTGCAG”, the binding signal is 5130 fluorescence intensity (a.u.).

Consider “GACGCGCTCGACGCCGCGGCGCGCGCCTCAGTTTGAGCTGCGGAGTCACCTAGTGCAG”, for which the binding signal was 17300 fluorescence intensity (a.u.).

On to “AGGAGGCGGGGCGGGGCGGCGGCGGCGGCGGCGGCGCCCGCGGAGTCACCTAGTGCAG”, for which the binding signal was 4520 fluorescence intensity (a.u.). The figure for “CCATAATCACACTTCAATAGTAGTACTACCACAATTGCATCGGAGTCACCTAGTGCAG” is 45100 fluorescence intensity (a.u.). The figure for “CTGCAGCTTCCTACCTCCATCCATCCATTCATCTTCTTCTCGGAGTCACCTAGTGCAG” is 3680 fluorescence intensity (a.u.); for “CTCGGTAATATTTGGGACGGAGTCACGGAGGGAGTTGTAACGGAGTCACCTAGTGCAG” it is 37000 fluorescence intensity (a.u.); for “GGTACCACGCTTTGATGTGCCTTATGTGGCACTTTATTTTCGGAGTCACCTAGTGCAG” it is 5580 fluorescence intensity (a.u.). The value for “GCATCGCAACAACAAGATGATCCATCCACAAGACCAAAGTCGGAGTCACCTAGTGCAG” was 20200 fluorescence intensity (a.u.).

On to “GTGAGAATTTCTAGGCCATGAGAGCGAACGTGGAGGCTCTCGGAGTCACCTAGTGCAG”, for which the binding signal was 4530 fluorescence intensity (a.u.). Take “TACCGCGTAGGCAATCATGCCACGCCTGCACATTGAACCGCGGAGTCACCTAGTGCAG”: the binding signal was 5260 fluorescence intensity (a.u.). “ATTGTACACAACAAATTGAAATTTTCAATTCAACTTTTAACGGAGTCACCTAGTGCAG”: the binding signal was 43200 fluorescence intensity (a.u.).

Consider “TTGTACAGCAGCGTGCTTCCATATGAGGAAATCCACTTCTCGGAGTCACCTAGTGCAG”, for which the binding signal was 44200 fluorescence intensity (a.u.). The value for “ATTCATTGTACTGAAAGACTCATATTAGATTGTAACATTTCGGAGTCACCTAGTGCAG” was 3340 fluorescence intensity (a.u.); that for “ATGGAACTCTCGCCACGTGGCATCTCAGTTCGTTGCACCCCGGAGTCACCTAGTGCAG” was 31700 fluorescence intensity (a.u.); that for “GGCCGTGCTCGTCACGCTCTGCGTCGCCGGCGCCTACTTCCGGAGTCACCTAGTGCAG” was 3410 fluorescence intensity (a.u.). Take “GTCCATCCGCGCGCAAGAGGTCTCCACCGCACGATTGAGTCGGAGTCACCTAGTGCAG”: the binding signal was 3190 fluorescence intensity (a.u.). The value for “ATATATATATATGCAGCATGTACACGTCAAACACTGAAACCGGAGTCACCTAGTGCAG” was 6320 fluorescence intensity (a.u.); that for “GCAGGATGATACTGATGACGATGCACTACCAATGCAACGTCGGAGTCACCTAGTGCAG” was 6730 fluorescence intensity (a.u.).

As to “GTGAAAGTACAATTAGGTTAACACTAACGTGGCTTGACCCCGGAGTCACCTAGTGCAG”, the binding signal was 6170 fluorescence intensity (a.u.). The figure for “GCCAATCCAGTCACTTACCTAACACAAAAGTTTCAAGCCACGGAGTCACCTAGTGCAG” is 8020 fluorescence intensity (a.u.).
